Record: PubChem BioAssay AID1259405 (NCATS, 2018)
The deposit covers about 50,000 reagents; this is an unselected part. Of all reagents, about 4,000 (8%) were called active. 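Mouse siRNA library applied to hamster cells; one well for each siRNA.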 The numbers tell different reagents against one gene apart.

- Test: 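Silenced genes that increase secreted GFP made by CHO cells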 (primary screen)
- Cell system: Chinese hamster CHO-K1 ovary cells with stable secreted eGFP expression
- Reagents: single siRNA against mouse genes, 0.8 pmol siRNA per well (2 µl of 400 nM stock)
- Time to read-out: 3 days
- Measurement: 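Per-well intracellular GFP measured by laser scanning cytometry, plus viability from ATP luminescence, each relative to plate median of non-targeting control wells, in %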
- Reading the numbers: GFP, % of control: higher = more GFP per well, higher productivity; viability (ATP), % of control: higher = more viable cells (more ATP)
- Hit rule: 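Called active when intracellular GFP, relative to negative control, is at or above 120%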

gene	reagent no.	GFP, % of control	viability (ATP), % of control	activity call
Nars1 (GeneID 70223)	1	74.1	74.7	inactive
Nars1 (GeneID 70223)	2	49.3	25	inactive
Nars1 (GeneID 70223)	3	120	80.8	inactive
Wdr70 (GeneID 545085)	1	66.9	82.1	inactive
Wdr70 (GeneID 545085)	2	60.3	66.6	inactive
Wdr70 (GeneID 545085)	3	83.3	83.7	inactive
Cidea (GeneID 12683)	1	90.2	95.9	inactive
Cidea (GeneID 12683)	2	88.8	80.9	inactive
Cidea (GeneID 12683)	3	102	144	inactive
Taf2 (GeneID 319944)	1	59.5	63.8	inactive
Taf2 (GeneID 319944)	2	81.9	100	inactive
Or2t48 (GeneID 258879)	1	24.7	25.4	inactive
Or2t48 (GeneID 258879)	2	79.9	42.7	inactive
Or2t48 (GeneID 258879)	3	58.9	90.5	inactive
Or5aq7 (GeneID 258766)	1	55.1	33.4	inactive
Or5aq7 (GeneID 258766)	2	91.8	69.7	inactive
Or5aq7 (GeneID 258766)	3	119	78.2	inactive
Pak1 (GeneID 18479)	1	78.7	58.8	inactive
Clec4b1 (GeneID 69810)	1	66	73.1	inactive
Clec4b1 (GeneID 69810)	2	72.3	86.9	inactive
Clec4b1 (GeneID 69810)	3	77.9	79.9	inactive
H2-K1 (GeneID 14972)	1	50.1	62.1	inactive
H2-K1 (GeneID 14972)	2	86	81.2	inactive
H2-K1 (GeneID 14972)	3	54.5	71.6	inactive
H2-K1 (GeneID 14972)	4	118	100	inactive
H2-K1 (GeneID 14972)	5	62.6	48.2	inactive
Spmap2 (GeneID 21830)	1	71.7	56.6	inactive
Spmap2 (GeneID 21830)	2	40	63.1	inactive
Spmap2 (GeneID 21830)	3	126	119	active
Sod3 (GeneID 20657)	1	96	92.8	inactive
Sod3 (GeneID 20657)	2	57	57.2	inactive
Sod3 (GeneID 20657)	3	110	62.2	inactive
Zfr (GeneID 22763)	1	128	131	active
Zfr (GeneID 22763)	2	77.4	97.6	inactive
Zfr (GeneID 22763)	3	109	60.6	inactive
Aida (GeneID 108909)	1	91.2	97	inactive
Aida (GeneID 108909)	2	44.7	52.5	inactive
Aida (GeneID 108909)	3	85.8	82.4	inactive
Rnd1 (GeneID 223881)	1	98.4	86.9	inactive
Rnd1 (GeneID 223881)	2	208	126	active
Rnd1 (GeneID 223881)	3	82.1	76.1	inactive
Tespa1 (GeneID 67596)	1	72.8	72.2	inactive
Tespa1 (GeneID 67596)	2	94.2	71.6	inactive
Tespa1 (GeneID 67596)	3	70.9	63.6	inactive
Fam222a (GeneID 433940)	1	122	69.1	active
Fam222a (GeneID 433940)	2	78.3	78.6	inactive
Fam222a (GeneID 433940)	3	69.8	91.5	inactive
Zfp341 (GeneID 228807)	1	71.1	98.4	inactive
Zfp341 (GeneID 228807)	2	50	76.7	inactive
Rgs4 (GeneID 19736)	1	77.5	72.6	inactive
Rgs4 (GeneID 19736)	2	63.2	47.4	inactive
Rgs4 (GeneID 19736)	3	71.2	59.9	inactive

Records listed so far whose target name starts with A or a:
gene	reagent no.	GFP, % of control	viability (ATP), % of control	activity call
Aida (GeneID 108909)	1	91.2	97	inactive
Aida (GeneID 108909)	2	44.7	52.5	inactive
Aida (GeneID 108909)	3	85.8	82.4	inactive

The results go on.
gene	reagent no.	GFP, % of control	viability (ATP), % of control	activity call
Ubr2 (GeneID 224826)	1	86.3	83.8	inactive
Ubr2 (GeneID 224826)	2	107	86.4	inactive
Ubr2 (GeneID 224826)	3	94.9	60.5	inactive
Erbb3 (GeneID 13867)	1	143	125	active
Erbb3 (GeneID 13867)	2	69.2	73.7	inactive
Erbb3 (GeneID 13867)	3	13.6	44.3	inactive
Tmem167 (GeneID 66074)	1	114	96.4	inactive
Tmem167 (GeneID 66074)	2	81.1	70.2	inactive
Tmem167 (GeneID 66074)	3	79.5	39.5	inactive
5031434C07Rik (GeneID 100503613)	1	80.2	81.1	inactive
5031434C07Rik (GeneID 100503613)	2	73.3	94.3	inactive
5031434C07Rik (GeneID 100503613)	3	150	134	active
Gstm4 (GeneID 14865)	1	87.8	67.5	inactive
Gstm4 (GeneID 14865)	2	107	117	inactive
Gstm4 (GeneID 14865)	3	128	102	active
Or4k48 (GeneID 258888)	1	102	93.1	inactive
Or4k48 (GeneID 258888)	2	123	87.8	active
Or4k48 (GeneID 258888)	3	51.4	80.5	inactive
Dcaf10 (GeneID 242418)	1	88.2	54.8	inactive
Dcaf10 (GeneID 242418)	2	79.7	90.6	inactive
Dcaf10 (GeneID 242418)	3	45.8	57.2	inactive
Smagp (GeneID 207818)	1	99.5	91.9	inactive
Smagp (GeneID 207818)	2	120	117	active
Smagp (GeneID 207818)	3	128	135	active
Itih4 (GeneID 16427)	1	76.5	86.6	inactive
Itih4 (GeneID 16427)	2	38.7	30.1	inactive
Itih4 (GeneID 16427)	3	69.8	70.1	inactive
Des (GeneID 13346)	1	100	74.8	inactive
Des (GeneID 13346)	2	65.7	73.6	inactive
Des (GeneID 13346)	3	71.8	91.1	inactive
Tpsb2 (GeneID 17229)	1	64	71.7	inactive
Tpsb2 (GeneID 17229)	2	76	73.8	inactive
Tpsb2 (GeneID 17229)	3	89.3	77.9	inactive
